Test results published in PMC8292354, “Molecular insights into the endoperoxide formation by Fe(II)/α-KG-dependent oxygenase NvfI” (Nature Communications, 2021).
Results are given in words; binding and its absence hold for the method and conditions named.

Biological target: NvfI from Aspergillus novofumigatus IBT 16806 (Aspergillus novofumigatus IBT 16806)
Assay: SEC; gel-filtration analysis of purified NvfI; apparent molecular weight 34 kDa; both purified

binding: no binding
B1: NvfI from Aspergillus novofumigatus IBT 16806 (enzyme, UniProt A0A2I1BSX0 1-278)
chain: MVGSRTWCESEMLFVQPDAGTKEELYYRVTPKPGQTQANFNWTPHKVRFHDARPQRDSFDLNTHGFTFVEDAISPQLIERIRADDTAAVEGDYFASVAALVKRVTGADHVVCFSPYTRKENSEKGIFGQPARTVHCDHTPAAAIELTHKLCGEDAVRLLQSRFRAFSVWRPLVEPVLDWPLAVVDGRTIAPDDLHPVHWLRYEKKDTEPPFQLSFSETQKWYYLSRQRSDEVSIVKNYDSEVVPSPRSAHCAFKHPFVPKDAPPRESIDVRCLVFGGR
